# Source: PubChem BioAssay AID1671190 (National Center for Advancing Translational Sciences (NCATS), 2021)
# Chains of the proteins cited; added tags and fusions are not shown. Lines headed by an entry give the natural chain unless they say otherwise; changes in a name come on top.
# UniProt P18054: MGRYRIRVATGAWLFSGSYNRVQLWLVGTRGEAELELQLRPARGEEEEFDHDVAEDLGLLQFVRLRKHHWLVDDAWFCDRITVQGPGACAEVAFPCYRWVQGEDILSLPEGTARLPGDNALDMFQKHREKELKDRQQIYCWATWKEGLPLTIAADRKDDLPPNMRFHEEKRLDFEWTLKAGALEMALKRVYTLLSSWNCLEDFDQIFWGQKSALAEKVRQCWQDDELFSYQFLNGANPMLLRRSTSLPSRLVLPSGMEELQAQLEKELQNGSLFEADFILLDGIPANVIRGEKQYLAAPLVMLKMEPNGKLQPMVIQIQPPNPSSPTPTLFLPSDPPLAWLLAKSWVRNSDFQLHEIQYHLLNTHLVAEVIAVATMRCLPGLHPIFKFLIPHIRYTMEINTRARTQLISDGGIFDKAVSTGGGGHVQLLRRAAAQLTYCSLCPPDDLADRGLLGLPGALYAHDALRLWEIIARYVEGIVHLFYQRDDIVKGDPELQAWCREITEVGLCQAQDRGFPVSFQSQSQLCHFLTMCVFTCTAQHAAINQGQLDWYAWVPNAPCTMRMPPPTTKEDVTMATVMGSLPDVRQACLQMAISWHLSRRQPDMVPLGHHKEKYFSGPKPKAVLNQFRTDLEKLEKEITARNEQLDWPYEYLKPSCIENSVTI
# About 6,100 (1.1%) of roughly 580,000 compounds were called active. Inconclusive results, whose numbers are uncertain, are shown with a selection of clear calls. Calls follow the shape of the dose curve; as a rule, active = well fitted inhibition curve with a large enough effect; inconclusive = small, poorly fitted or top-dose-only effect, or another doubt; inactive = no such curve, though single readings can be large or run the other way. Potencies beside an inconclusive call are fits to weak or partial responses and may not hold up.
# Biological target: Polyunsaturated fatty acid lipoxygenase ALOX12 (Homo sapiens) (UniProt P18054)
# Assay: Primary qHTS assay for inhibitors of human arachidonate 12S-lipoxygenase (ALOX12): Round 2
# Conditions: purified 12hLO, xylenol orange hydroperoxide absorbance; series mostly up to 108 µM
# Method in brief: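 Purified human 12hLO (150 nM final) in 25 mM Hepes, 0.01% Triton X-100, pH 7.0 was preincubated 15 min at room temperature with compound. Then 40 uM arachidonic acid was added, 30 min. Hydroperoxide was read by Fe-XO absorbance ratio 573/405 nm.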
# Potency is read from the fitted curve at half-maximal effect.
row,SMILES,Potency
1,COc1ccc(/C=C2\C(=O)ON=C2c2ccccc2)cc1OC,active: 7.08 µM
2,C[N+]1(CC2COC3(CCCCC3)O2)CCCC1 (stereo not drawn),"inconclusive: 44.7 µM [inhibitor, partial curve, poor fit]"
3,C/C(=C\C(=O)OCC(=O)NCc1ccccc1)C(=O)OCC(=O)NCc1ccccc1,inactive
4,C/C=C1\COC(C(=O)NCc2ccccc2)(C(F)(F)F)C=C1C=C1CCCCC1 (stereo not drawn),"inconclusive: 79.4 µM [inhibitor, partial curve, poor fit]"
5,CCN(CC)c1ccc(NC(=O)Cn2cc3c(n2)CCC(C)C3)c(C)c1 (stereo not drawn),inactive
6,O=C(O)C1C2C=CC(C2)C1C(=O)NCc1ccc(Cl)c(Cl)c1 (stereo not drawn),inactive
7,O=C1CC(c2ccccc2)N(S(=O)(=O)c2ccc3c(c2)OCCO3)CCCCCN1 (stereo not drawn),"inconclusive: 56.2 µM [inhibitor, partial curve, poor fit]"
8,Clc1cccc(-n2ncc3c(NCCC4=CCCCC4)ncnc32)c1,"inconclusive: 44.7 µM [inhibitor, partial curve, poor fit]"
9,CCc1noc(-c2ccn3c(CNC(=O)c4cc5ccccc5[nH]4)nnc3c2)n1,inactive
10,O=C1CC(c2ccccc2)N(C(=O)CNC(=O)Nc2ccc3c(c2)OCCO3)CCCCCN1 (stereo not drawn),inactive
11,CC(=C1C(=O)c2ccccc2C1=O)N1CCN(c2ccc(F)cc2)CC1,"inconclusive: 89.1 µM [inhibitor, partial curve, poor fit]"
12,O=C1c2ccccc2C(=O)N1c1nc(-c2cccs2)cs1,inactive
13,O=C(COC(=O)c1c[nH]c2ccccc12)Nc1cccc2ccccc12,inactive
14,CCOc1cc(/C=N/N2CCN(Cc3ccccc3)CC2)ccc1O,"inconclusive: 44.7 µM [inhibitor, partial curve, poor fit]"
15,CN1CCCN(C(=O)c2cc3c(s2)CCCC3)CC1,"inconclusive: 39.8 µM [inhibitor, partial curve, poor fit]"
16,O=c1c2ccccc2nc(/C=C/c2ccc([N+](=O)[O-])o2)n1CCCO,"inconclusive: 44.7 µM [inhibitor, partial curve, poor fit]"
17,Oc1c(C(c2ccc(F)cc2)N2CCCC2)sc2nc(-c3ccco3)nn12 (stereo not drawn),"inconclusive: 50.1 µM [inhibitor, partial curve, poor fit]"
18,O=S(=O)(NCC1(COc2ccc(C(F)(F)F)cn2)C[C@@H](O)[C@@H](O)C1)c1ccc(Cl)cc1 (stereo partly drawn),"inconclusive: 35.5 µM [inhibitor, full curve]"
19,Cc1ccc(S(=O)(=O)NC(=O)Nc2ccc(N(C)C)cc2)cc1,inactive
20,COc1ccc(Cn2c(C3CCN(C(=O)c4ccsc4)CC3)n[nH]c2=O)cc1,"inconclusive: 39.8 µM [inhibitor, partial curve]"
21,COc1ccc(C)cc1NC(=O)c1ccc(OC(F)F)cc1,inactive
22,COc1ccc(-c2nc(CSCC(=O)NCc3ccccc3)c(C)o2)cc1OC,inactive

row,SMILES,Potency
1,O=C(O)c1ccc2c(=O)n3cc(C(=O)c4ccccc4O)cc(Cl)c3nc2c1,"inconclusive: 25.1 µM [inhibitor, partial curve, poor fit]"
2,Cc1ccccc1C(=O)NC(NC(=O)c1ccccc1C)c1ccccc1,inactive
3,Cc1ccnc(SCC(=O)Nc2sc3c(c2C#N)CCCC3)n1,inactive
4,CC(C)CCN1C(=O)c2ccccc2C1c1nnnn1-c1ccc2c(c1)OCCO2 (stereo not drawn),"inconclusive: 39.8 µM [inhibitor, partial curve, poor fit]"
5,O=C(Nc1ccc(F)c(Cl)c1)c1ccc2c(Cl)c3c(nc2c1)CCC3,"inconclusive: 100 µM [inhibitor, partial curve, poor fit]"
6,CCOC(=O)C1CCCN(C(c2ccccn2)c2c(C)[nH]c3ccccc23)C1 (stereo not drawn),"inconclusive: 44.7 µM [inhibitor, partial curve, poor fit]"
7,COc1cc(C(C[N+](=O)[O-])c2c(-c3ccccc3)cc3ccccn23)cc(OC)c1OC (stereo not drawn),"inconclusive: 25.1 µM [inhibitor, partial curve, poor fit]"
8,Cc1ccc(Cl)cc1-n1c(=O)c2sc3ccccc3c2n(CC(=O)NC2CCCC2)c1=O,inactive
9,CC(=O)NC(O)C(=O)c1ccc(C)cc1 (stereo not drawn),"inconclusive: 89.1 µM [inhibitor, single point]"
10,O=C(O)c1nccnc1C(=O)Nc1ccccc1-c1ccccc1,"inconclusive: 2.51 µM [inhibitor, full curve, poor fit]"
11,COc1ccccc1CCNC(=O)c1cc(C2CC2)nc2c1cnn2C(C)C,"inconclusive: 44.7 µM [inhibitor, partial curve, poor fit]"
12,O=C(NCc1ccc2c(c1)OCO2)C1CC(c2ccccc2)CN(C(=O)c2ccccc2F)C1 (stereo not drawn),"inconclusive: 39.8 µM [inhibitor, partial curve]"
13,COC(=O)/C(=C\c1ccc([N+](=O)[O-])cc1)NC(C)=O,inactive
14,COc1ccc(/C=C/c2c([N+](=O)[O-])c(=O)n(C)c(=O)n2C)c(OC)c1OC,"inconclusive: 2.82 µM [inhibitor, full curve, poor fit]"
15,CCOC(=O)Cc1csc(NC(=O)c2ccc(N3CCOCC3)cc2[N+](=O)[O-])n1,"inconclusive: 2 µM [inhibitor, single point]"
16,Cc1ccc(S(=O)(=O)Nc2nc3ccccc3nc2Nc2cccc(F)c2)cc1,inactive
17,C=CC[C@H](CC(=O)NCCO)C(=O)N[C@@H](COC(=O)[C@@H](CC=C)CC(=O)OC(C)(C)C)Cc1c[nH]c2ccccc12,"inconclusive: 0.891 µM [inhibitor, full curve, poor fit]"
18,Clc1ccc(-c2nc(-c3ccc(Br)o3)no2)c(Cl)c1,inactive
19,COC(=O)[C@@H]1C[C@H](NC(=O)c2cc(C(F)(F)F)ccc2Cl)CN1Cc1cccc(O)c1,"inconclusive: 35.5 µM [inhibitor, partial curve, poor fit]"
20,C=CCNC(=S)/N=c1/ccccn1CC,"inconclusive: 63.1 µM [inhibitor, partial curve, poor fit]"
21,O=C(O)CCCC(=O)NNc1ncnc2ccccc12,inactive
